Assay results as given in publication PMC7819943, “Rice protein-binding microarrays: a tool to detect cis-acting elements near promoter regions in rice”.
Some of the results follow.

biological target: T1, OsSMF1 (Oryza sativa, UniProt Q6ZLB0 1-436); experiment: protein-binding microarray (RPBM); PBS, 2% BSA, 51.3 ng/ul salmon testes DNA, 50 uM zinc acetate, 200 nM TF, 25 C, 1 h; high values mean tight binding; conditions: protein: recombinant; tags: N-terminal polyhistidine and DsRed monomer fusion (pET32a); chain copies: 2; label: CyDye5-dUTP incorporated in the synthesized complementary strand; 3' TTTTT single-stranded linker to array surface; dsDNA, one strand shown
T1 sequence: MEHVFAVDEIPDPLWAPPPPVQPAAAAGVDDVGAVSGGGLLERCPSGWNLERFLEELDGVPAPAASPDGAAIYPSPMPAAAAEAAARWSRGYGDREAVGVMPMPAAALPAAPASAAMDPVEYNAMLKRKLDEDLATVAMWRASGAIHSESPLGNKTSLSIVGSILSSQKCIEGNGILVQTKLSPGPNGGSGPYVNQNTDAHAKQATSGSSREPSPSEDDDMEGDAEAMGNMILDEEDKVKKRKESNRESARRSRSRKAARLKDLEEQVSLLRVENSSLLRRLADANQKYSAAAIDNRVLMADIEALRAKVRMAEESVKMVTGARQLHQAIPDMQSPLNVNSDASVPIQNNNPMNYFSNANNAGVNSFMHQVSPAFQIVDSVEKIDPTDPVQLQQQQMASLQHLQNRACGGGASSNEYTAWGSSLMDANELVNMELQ
In short: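 The binding signal for each feature is its fluorescence intensity in arbitrary units. An Axon 4000B scanner was used to read a custom Agilent array that had been made double-stranded with Cy5-dUTP primer extension, blocked with 2% BSA, incubated at 25 °C for 1 h with 200 nM protein in PBS, 2% BSA, salmon testes DNA and 50 µM zinc acetate, and washed. The protein was an N-terminal polyhistidine–DsRed transcription factor fusion from E. coli BL21-CodonPlus, purified on Ni–NTA.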

“TGACTGACTCGCGCCACGCATATGGCGGGAGGAGGGAGGTCGGAGTCACCTAGTGCAG” was tested. Which binding signal did it give?
Its binding signal is 3550 fluorescence intensity (a.u.).

“AAGGTTTGGCTGAGTTGGGGAAGCGCGTCAGAGTAGCAGACGGAGTCACCTAGTGCAG” was tested. Which binding signal did it give?
Its binding signal is 3700 fluorescence intensity (a.u.).

For “ATAAAGACCTAGTCAATGGAGTGCCACGTAGGCACCACGTCGGAGTCACCTAGTGCAG”, which binding signal is on record?
Its binding signal is 39000 fluorescence intensity (a.u.).

For “AGTTTGGTTGAAAATTGGAACGATGTGATTAAAAGTTTGTCGGAGTCACCTAGTGCAG”, which binding signal is on record?
The binding signal was 16500 fluorescence intensity (a.u.).

“CTTGGTTTTCTTGATTTCTTGGGTTCTTGGCTACTGGGGCCGGAGTCACCTAGTGCAG” was tested. Which binding signal did it give?
Its binding signal is 3440 fluorescence intensity (a.u.).

For “GAGGTGGATTTGGGGAAAACCCGTCGCCGACGTCAGCGCCCGGAGTCACCTAGTGCAG”, which binding signal is on record?
The binding signal was 8800 fluorescence intensity (a.u.).

For “CCTTTCTATAGCGTAGACGTCAGTATAGTTCTTGCTTTGGCGGAGTCACCTAGTGCAG”, which binding signal is on record?
Its binding signal is 26400 fluorescence intensity (a.u.).

Which binding signal does the source give for “AAGGTCAGCTAAAGATTATGTTGTTTGTAGTTTCTAGATGCGGAGTCACCTAGTGCAG” here?
The binding signal was 3390 fluorescence intensity (a.u.).

With “TGCCGATCATTGACGCGTCCTCGTTGGGTTCTGTCCCAGCCGGAGTCACCTAGTGCAG” as the sequence, how does the binding signal read?
Its binding signal is 4610 fluorescence intensity (a.u.).

Which binding signal does the source give for “GATGCCTACGTGGAGACATGTTGTGTGGCCAACTGGGGTCCGGAGTCACCTAGTGCAG” here?
The binding signal was 7920 fluorescence intensity (a.u.).

How did the binding signal turn out when “AGGAGATTAGGATTCAGAGATGAGTCGCTTTTGTACTATACGGAGTCACCTAGTGCAG” was run?
Its binding signal is 3620 fluorescence intensity (a.u.).

“ACTCGTACTAGTATATGACTCGAGCAGTTCGATCCACCAGCGGAGTCACCTAGTGCAG” was tested. Which binding signal did it give?
Its binding signal is 3980 fluorescence intensity (a.u.).

With “TGTTTCTTACTGCCATCTCATCGTCCCCTTTCGCCATGGCCGGAGTCACCTAGTGCAG” as the sequence, how does the binding signal read?
The binding signal was 4000 fluorescence intensity (a.u.).

For “TAAATGAAAGAAGGGAAATCTCCCGTCTCTTTGTCTCCTGCGGAGTCACCTAGTGCAG”, which binding signal is on record?
Its binding signal is 3540 fluorescence intensity (a.u.).

Which binding signal does the source give for “TCGTCGCCTACGTGCCACCCACCAGGGACGTCTCGTGGCTCGGAGTCACCTAGTGCAG” here?
The binding signal was 6220 fluorescence intensity (a.u.).

How did the binding signal turn out when “TTGGTCTACGTGACGTACACGTGGCATCCCAATTAGCGTTCGGAGTCACCTAGTGCAG” was run?
The binding signal was 26200 fluorescence intensity (a.u.).

How did the binding signal turn out when “GAATACAGGATACACGACGATCTCATGGGATACCTGCCCTCGGAGTCACCTAGTGCAG” was run?
Its binding signal is 23700 fluorescence intensity (a.u.).

How did the binding signal turn out when “ACCATCCTAGTCATTGGGTTGGAAATGACCTACTTATTATCGGAGTCACCTAGTGCAG” was run?
The binding signal was 6870 fluorescence intensity (a.u.).

How did the binding signal turn out when “AGCATCCTACATTTAGGATTAATACATGACTACAGATTTGCGGAGTCACCTAGTGCAG” was run?
Its binding signal is 3200 fluorescence intensity (a.u.).

Which binding signal does the source give for “AGACGGAGGAGGACAAGGACATAGGGGAGGAGGGGCGAGGCGGAGTCACCTAGTGCAG” here?
The binding signal was 3270 fluorescence intensity (a.u.).

“TCTCGCCGCGACGCCACACGACACGACACGCGACGACGCGCGGAGTCACCTAGTGCAG” was tested. Which binding signal did it give?
The binding signal was 3250 fluorescence intensity (a.u.).

Which binding signal does the source give for “TTTTGTGCGCACAACACGTAACACGTATGGCCGGGGTATACGGAGTCACCTAGTGCAG” here?
The binding signal was 3240 fluorescence intensity (a.u.).

For “CGTGCAGACGTGATCCCTGCACCAAATTAATCCCACCTTACGGAGTCACCTAGTGCAG”, which binding signal is on record?
The binding signal was 3850 fluorescence intensity (a.u.).

For “CGAATTTCAGCTATTTCTAAATTGTATTTTGATGTGGACTCGGAGTCACCTAGTGCAG”, which binding signal is on record?
Its binding signal is 3900 fluorescence intensity (a.u.).

With “CACATGGTCTTTTCACCATTGACACGGCACCCACATCGAACGGAGTCACCTAGTGCAG” as the sequence, how does the binding signal read?
Its binding signal is 6470 fluorescence intensity (a.u.).

“ACCATTGAGTCATTGACCATGCCTAGTTTACAACAACATTCGGAGTCACCTAGTGCAG” was tested. Which binding signal did it give?
The binding signal was 3800 fluorescence intensity (a.u.).

For “CGTCCGTACGTCTGCGTCTGCAGCCTTCCGTTTCGTTTTCCGGAGTCACCTAGTGCAG”, which binding signal is on record?
Its binding signal is 3350 fluorescence intensity (a.u.).

How did the binding signal turn out when “CGAAGAGATGAGATATATGTTTCCACGTAAGTAGGTCATACGGAGTCACCTAGTGCAG” was run?
The binding signal was 7340 fluorescence intensity (a.u.).

For “TTGTCCAGGGCCAATATATCCTCCGGCCACGCTCATGCTGCGGAGTCACCTAGTGCAG”, which binding signal is on record?
The binding signal was 3430 fluorescence intensity (a.u.).

For “ATGGTTAGCATTAATCACTAATCACGTCATCATTAGTGCTCGGAGTCACCTAGTGCAG”, which binding signal is on record?
The binding signal was 4040 fluorescence intensity (a.u.).

How did the binding signal turn out when “TATCCCGTACGCGCGCTCGATCATCAGCTTGCATAGTCACCGGAGTCACCTAGTGCAG” was run?
The binding signal was 5620 fluorescence intensity (a.u.).

Which binding signal does the source give for “TCGTATTGGGCCGTGACTGGGCCATGTGTGCAGCACGTGGCGGAGTCACCTAGTGCAG” here?
The binding signal was 4180 fluorescence intensity (a.u.).

With “AATATTATGCAAATAATGTGAGCGTTGATGATTGCATATGCGGAGTCACCTAGTGCAG” as the sequence, how does the binding signal read?
The binding signal was 3720 fluorescence intensity (a.u.).

“TGCAATCTATATAAATGAACAGTTATGTATATTTCTTGTTCGGAGTCACCTAGTGCAG” was tested. Which binding signal did it give?
The binding signal was 7650 fluorescence intensity (a.u.).

How did the binding signal turn out when “CTCGCCGCTCACCAGCATCGCGTCGGTGGCACGTGGCGGTCGGAGTCACCTAGTGCAG” was run?
The binding signal was 8850 fluorescence intensity (a.u.).

“CCTATATGCGCGCAGCCGTGACGCGATGCGCACCATGTTGCGGAGTCACCTAGTGCAG” was tested. Which binding signal did it give?
The binding signal was 7650 fluorescence intensity (a.u.).

For “TTCGCATCGGCGTTGCTTCCAACGAGAGGGAGGGAGGGAGCGGAGTCACCTAGTGCAG”, which binding signal is on record?
The binding signal was 28900 fluorescence intensity (a.u.).

How did the binding signal turn out when “GGAGGAGGAGGAGGGAGAGGGTGGTGTAGTGGGAGCGGCCCGGAGTCACCTAGTGCAG” was run?
The binding signal was 3460 fluorescence intensity (a.u.).

With “CTTTGCGCCTTCGCGCAGCCGCGTAATCTCGTCTGCCCTCCGGAGTCACCTAGTGCAG” as the sequence, how does the binding signal read?
The binding signal was 3600 fluorescence intensity (a.u.).

How did the binding signal turn out when “GCCTGCGTACGTACTTGGCGTCAACCTCAGCAGTCTTGCGCGGAGTCACCTAGTGCAG” was run?
The binding signal was 3530 fluorescence intensity (a.u.).

Which binding signal does the source give for “CGGATGGGCTCGGGAGTTTGCCGTCGGCGACGTGGTGTCCCGGAGTCACCTAGTGCAG” here?
Its binding signal is 3950 fluorescence intensity (a.u.).

With “GACCCTGTCGCCCACCTCTGGGGCGGCAAGCTGACGTGGCCGGAGTCACCTAGTGCAG” as the sequence, how does the binding signal read?
Its binding signal is 27700 fluorescence intensity (a.u.).
